These results are taken from article PMC6547012, “TCP Transcription Factors Associate with PHYTOCHROME INTERACTING FACTOR 4 and CRYPTOCHROME 1 to Regulate Thermomorphogenesis in Arabidopsis thaliana” (iScience, 2019).

These are yes or no findings as the source states them, for the method shown. For some assays here: Binding calls can cover weak binding; strength is not graded here. Tags and fused reporters may be left off the sequences shown.

Assay [1] concerns the target CRY1 CCE domain (yeast two-hybrid fusion) (Arabidopsis thaliana). Kind of assay: two-hybrid; yeast two-hybrid of TCP17 with the PHR or CCE domain of CRY1.
The target in assay [2] is CRY1 PHR domain (yeast two-hybrid fusion) (Arabidopsis thaliana). The assay is described as above.

B1: TCP17 (yeast two-hybrid fusion) (protein, UniProt Q9LEZ9 1-242)
chain: MGIKKEDQKSSLSLLTQRWNNPRIVRVSRAFGGKDRHSKVCTVRGLRDRRIRLSVMTAIQVYDLQERLGLSQPSKVIDWLLEVAKNDVDLLPPLQFPPGFHQLNPNLTGLGESFPGVFDLGRTQREALDLEKRKWVNLDHVFDHIDHHNHFSNSIQSNKLYFPTITSSSSSYHYNLGHLQQSLLDQSGNVTVAFSNNYNNNNLNPPAAETMSSLFPTRYPSFLGGGQLQLFSSTSSQPDHIE
With B1, the binding entry in assay [1] is on record as “no binding”; in assay [2], “binds”.
